Measurements published in patent US20240092930A1.
These are yes or no findings as the source states them, for the method shown. Some results given as binding are weak or reduced against the parent protein; the word gives no strength.

Amino acid sequences for entries named in this document (tags omitted). A change or cut given only in a name is not applied to a line headed by its entry. Residues count along the entry.
UniProt P09758: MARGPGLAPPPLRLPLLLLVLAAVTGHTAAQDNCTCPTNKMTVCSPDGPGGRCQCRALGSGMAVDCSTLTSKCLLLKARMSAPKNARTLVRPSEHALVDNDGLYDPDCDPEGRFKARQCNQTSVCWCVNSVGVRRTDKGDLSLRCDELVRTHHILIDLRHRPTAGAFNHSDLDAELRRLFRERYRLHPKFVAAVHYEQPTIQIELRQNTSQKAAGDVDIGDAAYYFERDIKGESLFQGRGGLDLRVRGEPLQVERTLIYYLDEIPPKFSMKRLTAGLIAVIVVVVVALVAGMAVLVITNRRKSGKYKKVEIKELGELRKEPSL
human Trop-2 on the surface of cells (CHO/Trop-2 cells; BxPC-3 cells; NCI-N87 cells): residues 27-323 of P09758

Assays:
[1] = target: recombinant human Trop-2-his protein (ACCESSION NO.: NP_002344.2, AA 1-274) (human) (UniProt P09758); assay: ELISA, hybridoma supernatant on coated Trop-2-his
[2] = target: recombinant human Trop-2-his protein (ACCESSION NO.: NP_002344.2, AA 1-274) (human) (UniProt P09758); assay: ELISA, coated human Trop-2-his, purified murine antibody 1 µg/ml
[3] = target: human Trop-2 on the surface of cells (CHO/Trop-2 cells; BxPC-3 cells; NCI-N87 cells) (human) (UniProt P09758); assay: FACS (MFI) on CHO/Trop-2 cells, hybridoma supernatant diluted 100-fold, goat anti-mouse IgG-FITC
[4] = target: human Trop-2 on the surface of cells (CHO/Trop-2 cells; BxPC-3 cells; NCI-N87 cells) (human) (UniProt P09758); assay: FACS, CHO/Trop-2 cells, purified murine antibody at 13 nM and 0.66 nM
[5] = target: human Trop-2 on the surface of cells (CHO/Trop-2 cells; BxPC-3 cells; NCI-N87 cells) (human) (UniProt P09758); assay: FACS, CHO/Trop-2 cells
[6] = target: recombinant human Trop-2-his protein (ACCESSION NO.: NP_002344.2, AA 1-274) (human) (UniProt P09758); assay: ELISA, coated Trop-2-his 0.2 µg/ml

Measured: binding

B1: m11-4 (antibody, mouse IgG1, V domains shown)
VH: QVQLQQPGAELVRPGASVNLSCKASGYTFTSYWINWVKQRPGQGLEWIGNIYPSNSYTNYNQKFKDTATLTVDKSSSTAYMQLSSPTSEDSAVYFCSSYRSDGFAYWGQGTLVTVSA
VL: DILLTQSPAILSVSPGEKVSFSCRASQNIGTSIHWYQQRTNGSPRLLIEFASESISGIPSRFSGSGSGTDFTLTINSVESEDIADYYCQQSNSWPFTFGGGTKLEIK
binds: [1] | [2] | [3] | [4]

B2: chimeric antibody ch11-4 (antibody, human IgG1, V domains shown)
VH: B1 VH
VL: B1 VL
binds: [5] | [6]
